The labels stand for the following.
B1: S1R3A1_CS_1B10 (scFv, V domains shown)
VH: EVQLVQSGAEVKKPGASVRVSCKGSGNTFTGHYIHWVRQAPGQGLEWLGWIDPNTGDIQYSENFKGSVTLTRDPSINSVFMDLIRLTSDDTAMYYCAREGAGLANYYYYGLDVWGRGTMVTVSS
VL: QTVVLQEPSFSVSPGGTVTLTCGLNFGSVSTAYYPSWYQQTPGQAPRTLIYGTNIRSSGVPDRFSGSIVGNKAALTITGAQTEDESDYYCALYMGSGMLFGGGTKVTVL
B2: S1R3B1_BMV_1A1 (scFv, V domains shown)
VH: EVQLVQSGAEVKEPGASVKVSCKASGYDFSNYGFSWVRQAPGQGLEWMGWISSYNGYTNYAQRLQGRVTMTTDTSTSTAYMELRSLRSDDTAVYYCARDRGLGNWYFDLWGQGTLVTVSS
VL: QSVLTQPASVSGSPGQSITISCTGTSSDVGGYNYVSWYQQHPGKAPKLMIYEGSKRPSGVSNRFSGSKSGNTASLTISGLQAEDEADYYCSSYTTRSTRVFGGGTKLTVL
B3: S1R3B1_BMV_1G11 (scFv, V domains shown)
VH: QVQLVQSGGGLVQPGGSLRLSCAASGFTFSTYAMSWARQAPGKGLEWVSSISGDGGRILDADSAKGRFTISRDNSKNTLYLQMNGLRVEDTALYYCARADGNYWGRGTMVTVSS
VL: QSVLTQPASVSGSPGQSITISCTGTSSDVGGYNYVSWYQQHPGKAPKLMIYEGSKRPSGVSNRFSGSKSGNTASLTISGLQAEDEADYYCSSYTTRSTRVFGGGTKLTVL
B4: S1R3A1_CS_1B9 (scFv, V domains shown)
VH: KVQLVQSGTEVKKPGESLKISCQGSGYRFSSDWIAWVRQMPGKGLEWMGIVYPGDSDTRYSPSFQGQVTISADKSISTAYLQWSGLKASDTAKYYCARVQQAVGAKGYAMDVWGKGTLVTVSS
VL: QTVVIQEPSFSVSPGGTVTLTCGLSSGSVSTSYYPSWYRQTPGQAPHTLIHNTKIRSSGVPDRFSGSILGNNAALTITGAQADDESDYYCLLYMGSGIYVFGGGTKLTVL
B5: S1R3B1_BMV_1H9 (scFv, V domains shown)
VH: QVQLQESGAGLVKPSGTLSLTCAVSGGSISSGNWWSWVRQPPGKGLEWIGEISHSGSTNYNPSLKSRVTISVDKSKNQFSLNLSSVTAADTAVYYCARVRGTVGDTRGPDYWGQGTLVTVSS
VL: SSELTQDPAVSVALGQTVRITCQGDSLRSYYASWYQQKPGQAPVLVIYGKNNRPSGIPDRFSGSSSGNTASLTITGAQAEDEADYYCNSRDSSGNHVVFGGGTKLTVL
B6: S1R3A1_BMV_1F3 (scFv, V domains shown)
VH: EVQLVESGEGLVKPGGSLRLSCTASGFTFRSYSLNWVRQAPGQGLEWVSSISSTSTYIYYADSVKGRFTISRDDAKNTLYLQMNSLRAEDTAAYYCVRLGSGGGYFPDYWGRGTLVTVSS
VL: SSELTQDPAVSVALGQTVRITCQGDSLRSYYASWYQQKPGQAPVLVIYGKNNRPSGIPDRFSGSSSGNTASLTITGAQAEDEADYYCNSRDSSGNHVVFGGGTKLTVL
B7: S1R3B1_BMV_1H5 (scFv, V domains shown)
VH: QVQLQESGGGVVQPGGSLRLSCAASGFTFSGYGMHWVRQAPGKGLEWVASVRNDGSNTYYTDSVKDRFTISRDNTKNTLYLQMNSLRAEDTAVYYCAKSRRVMYGTSYYFDYWGRGTLVTVSS
VL: SSELTQDPAVSVALGQTVRITCQGDSLRSYYASWYQQKPGQAPVLVIYGKNNRPSGIPDRFSGSSSGNTASLTITGAQAEDEADYYCNSRDSSGNHVVFGGGTKLTVL
B8: S1R3B2_BMV_1G2 (scFv, V domains shown)
VH: QVQLVQSGAEVKKPGSSVKVSCKASGYTFTSYGISWVRQAPGQGLEWMGWISAYNGNTNYAQKLQGRVTMTTDTSTSTAYMELRSLRSDDTAVYYCARVPGVSGSYPDYYYMDVWGKGTLVTVSS
VL: DIQMTQSPSTLSASIGDRVTITCRASEGIYHWLAWYQQKPGKAPKLLIYKASSLASGAPSRFSGSGSGTDFTLTISSLQPDDFATYYCQQYSNYPLTFGGGTKLEIK
B9: S1R3C1_CS_1D3 (scFv, V domains shown)
VH: QVQLQESGPGLVKPSQTLSLTCGISGDSVSSNSAAWNWIRQSPTRGLEWLGRTYYRSSWYHNYAPSMNSRLTIIADTSKNQFSLQLNSVTPEDTAVYYCASGWAFDVWGRGTLVTVSS
VL: QSVLTQPPSASGSPGQSVTISCTGTSSDVGAYDFVSWYQQHPGKAPKLMIYEVNKRPSGVPDRFSGSKSGNTASLTVSGLQAEDEADYYCSSYAGSKNLLFGGGTKLTVL

Binding data for nine molecules are collected here from patent US20090304590A1.

No constants are given. Whether binding was seen depends on the method and setting. Some binding calls cover weakened binding; strength is not graded here.

One assay concerns the target Her2 (ErbB2) extracellular domain (ECD) (human) (UniProt P04626). Nature of the assay: phage display selection and ELISA screening, soluble periplasmic scFv. In general terms: ELISA stands for enzyme-linked immunosorbent assay.
Turning to B1, the binding entry is reported as “binds”. On to B2, for which the binding entry is reported as “binds”. With B3, the binding result is listed as “binds”.

For B4, the binding result was “binds”. Same read-out and setting: in the case of B5 it was “binds”. The same measure, in the same setting: next, B6: “binds”.

Consider B7, for which the binding result was “binds”.

The next assay has the same target. Nature of the assay: phage display selection and ELISA screening, scFv on phage.
Turning to B8, the binding result is recorded as “binds”. Consider B9, for which the binding entry is on record as “binds”.
